# At least one structure is not confirmed: it was looked up by name or label, or the drawing left a doubt.
# Test system: SDF1 promoter
# Assay: Screening of pigment regulators using SDF1 promoter (pGF1 reporter fibroblast cell line, Luciferase assay)
# Assay type: cell-based
# Details: fibroblasts infected with SDF1 promoter pGF1 vector virus; 1 ug TPA; 1 ug and 10 ug retinoic acid; 24 hours after treatment
# Description: In order to express the SDF1 promoter gene, the SDF1 promoter gene was inserted into pGF1-vector to construct the SDF1 promoter GFP vector. In order to produce the virus into which the constructed vector was inserted, a virus production system of lentivirus was used. PVSV-G (SystemBiosciences, USA) encoding the required structural protein, the pGF1 vector into which the SDF1 promoter gene was inserted, and pGag-pol were simultaneously co-transfected into HEK-293TN cells by a liposome method. After 6 hours, the medium was replaced with a new medium, cultured for 48 hours, and the medium containing the virus was harvested, and the harvested virus was used for fibroblasts infection. As for the infected fibroblasts, only cells infected by Puromycin were selected for the experiment.
# In order to confirm the expression of the prepared SDF1 promoter, Luciferase assay, an experiment that can confirm the level of GFP, was conducted to observe the expression level.
# Cells were cultured in 12 well plates in an amount of 1×10^3, and after 24 hours, 1 ug of TPA, 10 ng and 100 ng of EGF, and 1 ug and 10 ug of retinoic acid were treated, respectively. 24 hours after treatment with the drug, the activity of GFP was measured through Luciferase assay.
smiles,measurement,value
CC1=C(/C=C/C(C)=C/C=C/C(C)=C/C(=O)O)C(C)(C)CCC1 [retinoic acid],SDF1 promoter activity (activity of GFP measured through Luciferase assay),increased

# Reference: patent publication US11692227B2, “Method for screening for skin whitening agent by using SDF1 promoter region” (AJOU UNIVERSITY INDUSTRY-ACADEMIC COOPERATION FOUNDATION, priority 2018, dated 2023)
